Protein sequences, listed by entry. Tags and fused reporters are not part of them.
UniProt P32324: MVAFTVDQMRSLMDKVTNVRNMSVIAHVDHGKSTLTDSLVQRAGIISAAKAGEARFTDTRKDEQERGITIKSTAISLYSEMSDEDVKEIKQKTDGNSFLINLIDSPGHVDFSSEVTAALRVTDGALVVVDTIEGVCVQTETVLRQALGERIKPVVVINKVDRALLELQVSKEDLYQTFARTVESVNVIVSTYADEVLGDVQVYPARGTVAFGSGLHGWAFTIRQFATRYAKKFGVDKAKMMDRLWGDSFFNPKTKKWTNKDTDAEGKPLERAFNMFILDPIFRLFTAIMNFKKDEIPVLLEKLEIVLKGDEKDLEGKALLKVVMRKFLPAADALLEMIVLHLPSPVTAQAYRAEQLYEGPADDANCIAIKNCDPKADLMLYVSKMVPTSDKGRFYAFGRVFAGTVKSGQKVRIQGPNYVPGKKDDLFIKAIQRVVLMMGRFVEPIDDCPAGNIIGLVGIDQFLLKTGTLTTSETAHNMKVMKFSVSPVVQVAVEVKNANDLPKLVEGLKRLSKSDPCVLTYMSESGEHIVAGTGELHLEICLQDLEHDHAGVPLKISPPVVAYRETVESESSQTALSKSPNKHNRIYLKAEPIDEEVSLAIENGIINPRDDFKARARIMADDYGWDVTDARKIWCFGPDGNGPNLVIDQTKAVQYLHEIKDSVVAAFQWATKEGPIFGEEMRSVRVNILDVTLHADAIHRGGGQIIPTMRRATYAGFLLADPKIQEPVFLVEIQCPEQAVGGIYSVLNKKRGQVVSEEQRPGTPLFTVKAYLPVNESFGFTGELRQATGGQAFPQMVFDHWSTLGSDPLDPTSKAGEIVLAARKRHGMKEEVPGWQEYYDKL
UniProt P0CX44: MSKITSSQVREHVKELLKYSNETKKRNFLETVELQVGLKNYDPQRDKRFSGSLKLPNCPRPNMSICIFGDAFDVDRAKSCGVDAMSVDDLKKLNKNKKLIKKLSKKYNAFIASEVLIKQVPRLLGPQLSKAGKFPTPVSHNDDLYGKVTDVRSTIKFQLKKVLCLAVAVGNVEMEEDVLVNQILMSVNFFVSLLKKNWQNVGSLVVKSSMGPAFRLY
UniProt P02994: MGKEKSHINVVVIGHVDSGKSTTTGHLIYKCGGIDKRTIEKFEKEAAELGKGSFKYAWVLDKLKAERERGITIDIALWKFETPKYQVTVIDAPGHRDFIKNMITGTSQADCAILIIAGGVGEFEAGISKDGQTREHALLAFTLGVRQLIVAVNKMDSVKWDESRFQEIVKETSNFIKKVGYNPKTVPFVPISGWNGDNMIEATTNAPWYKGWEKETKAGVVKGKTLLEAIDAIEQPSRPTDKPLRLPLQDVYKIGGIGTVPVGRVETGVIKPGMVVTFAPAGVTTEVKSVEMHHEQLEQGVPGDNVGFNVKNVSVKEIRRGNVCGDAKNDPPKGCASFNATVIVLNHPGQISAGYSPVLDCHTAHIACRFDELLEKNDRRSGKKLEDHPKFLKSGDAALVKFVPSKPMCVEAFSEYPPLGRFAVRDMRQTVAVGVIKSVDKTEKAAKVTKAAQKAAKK
UniProt P0CX46: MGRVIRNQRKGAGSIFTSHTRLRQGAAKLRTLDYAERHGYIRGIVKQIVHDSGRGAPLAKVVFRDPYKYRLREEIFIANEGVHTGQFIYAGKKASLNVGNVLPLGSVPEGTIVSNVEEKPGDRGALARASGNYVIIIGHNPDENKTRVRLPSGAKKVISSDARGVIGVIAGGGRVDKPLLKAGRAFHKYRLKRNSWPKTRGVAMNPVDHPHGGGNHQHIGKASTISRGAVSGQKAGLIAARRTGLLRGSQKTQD
UniProt P14126: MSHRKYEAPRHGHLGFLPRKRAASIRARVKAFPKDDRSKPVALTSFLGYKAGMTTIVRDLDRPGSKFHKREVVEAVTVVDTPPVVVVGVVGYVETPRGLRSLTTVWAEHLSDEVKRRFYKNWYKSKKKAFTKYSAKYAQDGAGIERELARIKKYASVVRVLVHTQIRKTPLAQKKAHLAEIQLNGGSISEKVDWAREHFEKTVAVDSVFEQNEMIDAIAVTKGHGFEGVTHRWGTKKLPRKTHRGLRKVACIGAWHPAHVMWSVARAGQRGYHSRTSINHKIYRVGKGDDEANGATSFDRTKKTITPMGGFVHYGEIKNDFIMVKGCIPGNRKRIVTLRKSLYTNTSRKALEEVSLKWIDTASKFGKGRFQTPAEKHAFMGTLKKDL
UniProt P49626: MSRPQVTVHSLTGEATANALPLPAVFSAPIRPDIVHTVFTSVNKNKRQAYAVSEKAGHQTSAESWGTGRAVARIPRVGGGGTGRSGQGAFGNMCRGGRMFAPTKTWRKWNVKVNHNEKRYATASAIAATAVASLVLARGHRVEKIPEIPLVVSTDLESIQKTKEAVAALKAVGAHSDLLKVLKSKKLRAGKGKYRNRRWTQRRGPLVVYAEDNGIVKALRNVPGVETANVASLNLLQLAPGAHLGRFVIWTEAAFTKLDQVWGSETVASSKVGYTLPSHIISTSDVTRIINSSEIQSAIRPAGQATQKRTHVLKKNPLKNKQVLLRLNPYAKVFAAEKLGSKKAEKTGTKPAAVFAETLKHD
UniProt P54780: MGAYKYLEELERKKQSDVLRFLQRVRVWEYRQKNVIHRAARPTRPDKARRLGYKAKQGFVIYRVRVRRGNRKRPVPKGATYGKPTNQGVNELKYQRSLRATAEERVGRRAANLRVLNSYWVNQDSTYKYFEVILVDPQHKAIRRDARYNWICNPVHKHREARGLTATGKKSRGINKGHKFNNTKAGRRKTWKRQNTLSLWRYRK
UniProt P04147: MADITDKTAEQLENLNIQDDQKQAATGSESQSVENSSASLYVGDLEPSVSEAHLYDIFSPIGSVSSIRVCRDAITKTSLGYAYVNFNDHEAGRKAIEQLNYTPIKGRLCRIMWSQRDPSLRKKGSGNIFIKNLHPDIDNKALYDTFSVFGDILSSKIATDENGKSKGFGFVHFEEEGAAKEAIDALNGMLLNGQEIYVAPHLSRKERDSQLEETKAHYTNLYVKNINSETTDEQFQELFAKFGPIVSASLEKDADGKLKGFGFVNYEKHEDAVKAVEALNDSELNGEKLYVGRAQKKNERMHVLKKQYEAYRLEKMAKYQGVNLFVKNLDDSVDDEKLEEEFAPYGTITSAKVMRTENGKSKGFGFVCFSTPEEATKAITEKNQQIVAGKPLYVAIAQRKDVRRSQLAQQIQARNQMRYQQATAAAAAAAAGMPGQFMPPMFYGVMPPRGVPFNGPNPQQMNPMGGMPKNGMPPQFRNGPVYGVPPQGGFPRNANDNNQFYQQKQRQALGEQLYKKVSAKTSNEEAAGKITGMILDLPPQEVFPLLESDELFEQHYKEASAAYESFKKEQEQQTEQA

According to article PMC3168509, “Insights into the Role of Yeast eIF2A in IRES-Mediated Translation” (PLoS ONE, 2011):

Molecular target: T1, HA-eIF2A (N-terminally HA-tagged eukaryotic initiation factor 2A expressed from YCplac111-YP) (S. cerevisiae) (UniProt P53235)
T1 sequence: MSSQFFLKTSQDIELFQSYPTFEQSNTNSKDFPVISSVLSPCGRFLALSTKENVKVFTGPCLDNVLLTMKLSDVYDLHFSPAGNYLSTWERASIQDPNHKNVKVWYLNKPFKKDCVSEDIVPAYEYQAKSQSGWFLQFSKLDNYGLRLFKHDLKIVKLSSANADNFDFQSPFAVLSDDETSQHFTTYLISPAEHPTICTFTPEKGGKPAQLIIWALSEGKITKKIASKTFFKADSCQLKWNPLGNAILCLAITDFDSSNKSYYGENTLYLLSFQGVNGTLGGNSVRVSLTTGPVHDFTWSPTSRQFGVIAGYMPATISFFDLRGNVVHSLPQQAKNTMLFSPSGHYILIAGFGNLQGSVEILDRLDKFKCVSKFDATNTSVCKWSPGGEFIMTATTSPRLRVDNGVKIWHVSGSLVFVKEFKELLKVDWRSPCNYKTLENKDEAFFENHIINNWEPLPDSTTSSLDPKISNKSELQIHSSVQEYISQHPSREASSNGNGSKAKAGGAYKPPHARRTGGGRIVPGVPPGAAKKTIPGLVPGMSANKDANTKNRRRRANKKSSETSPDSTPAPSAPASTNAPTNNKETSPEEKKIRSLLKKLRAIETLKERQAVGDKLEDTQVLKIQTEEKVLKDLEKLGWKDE
Experiment: affinity purification with mass spectrometry; HA-eIF2A precipitated on α-HA affinity matrix from lysate of ΔeIF2A yeast with YCplac111-YP, NETK buffer, overnight 4°C, eluted with HA peptide; gel bands absent from the vector-alone control analysed by LC-tandem MS

- binding: binds
Molecule: Eukaryotic translation elongation factor 2 (Eft1p), endogenous (from UniProt P32324 1-842)

- binding: binds
Molecule: Large ribosomal protein 1B, endogenous (from UniProt P0CX44 1-217)

- binding: binds
Molecule: eEF1A (eukaryotic translation elongation factor 1A), endogenous (from UniProt P02994 1-458)

- binding: binds
B3: Large ribosomal protein 7A, endogenous (protein, UniProt P05737 1-244)
chain: MAAEKILTPESQLKKSKAQQKTAEQVAAERAARKAANKEKRAIILERNAAYQKEYETAERNIIQAKRDAKAAGSYYVEAQHKLVFVVRIKGINKIPPKPRKVLQLLRLTRINSGTFVKVTKATLELLKLIEPYVAYGYPSYSTIRQLVYKRGFGKINKQRVPLSDNAIIEANLGKYGILSIDDLIHEIITVGPHFKQANNFLWPFKLSNPSGGWGVPRKFKHFIQGGSFGNREEFINKLVKSMN

- binding: binds
B4: Small ribosomal protein 8A, endogenous (protein, UniProt P0CX39 1-200)
chain: MGISRDSRHKRSATGAKRAQFRKKRKFELGRQPANTKIGAKRIHSVRTRGGNKKYRALRIETGNFSWASEGISKKTRIAGVVYHPSNNELVRTNTLTKAAIVQIDATPFRQWFEAHYGQTLGKKKNVKEEETVAKSKNAERKWAARAASAKIESSVESQFSAGRLYACISSRPGQSGRCDGYILEGEELAFYLRRLTAKK

The next lines start with the molecule.

Molecule: Large ribosomal protein 2B, endogenous (from UniProt P0CX46 1-254)
- binding: binds

Molecule: Large ribosomal protein 3, endogenous (from UniProt P14126 1-387)
- binding: binds

Molecule: Large ribosomal protein 4B, endogenous (from UniProt P49626 1-362)
- binding: binds

Molecule: Large ribosomal protein 15B, endogenous (from UniProt P54780 1-204)
- binding: binds

Molecule: Poly(A) Binding Protein (Pab1p), endogenous (from UniProt P04147 1-577)
- binding: binds

B1: Eukaryotic translation initiation factor 4A (Tif1p), endogenous (protein, UniProt P10081 1-395)
chain: MSEGITDIEESQIQTNYDKVVYKFDDMELDENLLRGVFGYGFEEPSAIQQRAIMPIIEGHDVLAQAQSGTGKTGTFSIAALQRIDTSVKAPQALMLAPTRELALQIQKVVMALAFHMDIKVHACIGGTSFVEDAEGLRDAQIVVGTPGRVFDNIQRRRFRTDKIKMFILDEADEMLSSGFKEQIYQIFTLLPPTTQVVLLSATMPNDVLEVTTKFMRNPVRILVKKDELTLEGIKQFYVNVEEEEYKYECLTDLYDSISVTQAVIFCNTRRKVEELTTKLRNDKFTVSAIYSDLPQQERDTIMKEFRSGSSRILISTDLLARGIDVQQVSLVINYDLPANKENYIHRIGRGGRFGRKGVAINFVTNEDVGAMRELEKFYSTQIEELPSDIATLLN
- binding: binds

B2: Small ribosomal protein 4A, endogenous (protein, UniProt P0CX35 1-261)
chain: MARGPKKHLKRLAAPHHWLLDKLSGCYAPRPSAGPHKLRESLPLIVFLRNRLKYALNGREVKAILMQRHVKVDGKVRTDTTYPAGFMDVITLDATNENFRLVYDVKGRFAVHRITDEEASYKLGKVKKVQLGKKGVPYVVTHDGRTIRYPDPNIKVNDTVKIDLASGKITDFIKFDAGKLVYVTGGRNLGRIGTIVHKERHDGGFDLVHIKDSLDNTFVTRLNNVFVIGEQGKPYISLPKGKGIKLSIAEERDRRRAQQGL
- binding: binds

These are yes or no findings as the source states them, for the method shown. Binding seen in cells or lysates may run through a third protein. Here binding means that the protein was enriched with, or labelled near, the bait; the list need not be complete. Where a sequence is shown, tags or fusion partners need not be part of it. One block for each molecule: values may come before it.
